Source: PMC8369990

Protein sequences, listed by entry. Tags and fused reporters are not part of them.
UniProt P08515, whole entry: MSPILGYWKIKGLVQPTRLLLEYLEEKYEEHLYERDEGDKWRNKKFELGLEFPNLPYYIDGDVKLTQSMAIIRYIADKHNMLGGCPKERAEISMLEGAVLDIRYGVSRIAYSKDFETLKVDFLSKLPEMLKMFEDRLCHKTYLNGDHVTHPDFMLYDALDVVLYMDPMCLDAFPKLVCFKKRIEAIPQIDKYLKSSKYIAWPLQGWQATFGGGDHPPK

Legend:
Assay in all cases: EMSA
GST = GST (UniProt P08515); conditions: GST alone; LightShift Chemiluminescent EMSA kit, 5% native PAGE; pH and temperature not stated (as in Tan et al., 2019); recombinant protein; protein details: GST; label: biotin
[1] = tested on: GST-HcMYB1 (Hedychium coronarium); conditions: 100-fold unlabeled probe reduced and 500-fold abolished the complex; LightShift Chemiluminescent EMSA kit, 5% native PAGE; pH and temperature not stated (as in Tan et al., 2019); recombinant protein; protein details: N-terminal GST (pGEX-4T-1); label: biotin
[2] = tested on: GST-HcMYB2 (Hedychium coronarium); conditions: LightShift Chemiluminescent EMSA kit, 5% native PAGE, pH and temperature not stated (as in Tan et al., 2019), recombinant protein, protein details: N-terminal GST (pGEX-4T-1), label: biotin

Row | Sequence | binding result (GST) | binding result [1] | binding result ([2]; 100-fold unlabeled probe reduced and 500-fold abolished the complex) | binding result [2]
1 | CAAGCGACCACCAACGGTTGAGATCAATTTTTTCTTGATCTAACGGTTC (double strand) [proHcBSMT2 probe] | no binding | binds | binds | –
2 | TTCAACCAGATCAACCAATATATAACTCCTTAGCCCCTACCTAACCAGAC (double strand) [proHcTPS5 probe] | – | – | – | binds

The exact form of at least one protein or probe is not confirmed. For some of these results: A negative result means that nothing was seen under these conditions.
